Assay results published in paper PMC7782713, “Structural basis of Naa20 activity towards a canonical NatB substrate” (Communications Biology, 2021).
Construct, isoform or probe ends are uncertain for at least one entry.

System: CtNaa20 + CtNaa25
Experiment: EMSA
Conditions: 5-20 uM protein, 5 uM RNA; 20 mM Tris pH 8, 200 mM NaCl, 10 mM MgCl2, 10 mM KCl, 20% glycerol, 20 C, 30 min; 0.8% agarose gel in 0.5x TB; recombinant protein; protein details: C-terminal His6,N-terminal His6, TEV-cleavable

GGGCCUCUAGCCGGGCAACCGGCCGGCGGCUC [CtES27 fragment (tip of expansion segment 27)]
binding result: binds
